{"source": "paper PMC8450094", "test_in_all_cases": "fluorescence polarisation", "key": {"[1]": {"target": "T1, SNM1B T257A (Homo sapiens) (UniProt Q9H816)", "T1 sequence (looked up)": "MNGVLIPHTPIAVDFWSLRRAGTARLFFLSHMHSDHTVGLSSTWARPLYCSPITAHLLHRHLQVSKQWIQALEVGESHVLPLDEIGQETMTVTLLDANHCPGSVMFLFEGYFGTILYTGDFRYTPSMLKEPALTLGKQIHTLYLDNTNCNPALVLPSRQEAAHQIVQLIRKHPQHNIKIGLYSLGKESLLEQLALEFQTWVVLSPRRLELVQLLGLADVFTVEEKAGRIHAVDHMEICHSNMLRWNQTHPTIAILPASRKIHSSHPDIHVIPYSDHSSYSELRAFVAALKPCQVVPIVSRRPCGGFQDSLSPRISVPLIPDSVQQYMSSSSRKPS", "details": "apparent, curves do not saturate; 5' phosphate on strand 1; 5' OH on strand 2; FP: 20 mM HEPES pH 7.5, 50 mM KCl, 0.5 mM TCEP, room temperature, 5 min, DNA 25 nM (Methods) or 50 nM (legends; 10 nM in Suppl. Fig. 14C); recombinant protein; residues 1-335; protein details: C-terminal His10-FLAG, TEV cleavage stated; label: 3' FITC on strand 1"}, "[2]": {"target": "T2, SNM1B/Apollo WT (Homo sapiens) (UniProt Q9H816)", "T2 sequence (looked up)": "T1 sequence (looked up) with A257T", "details": "apparent, curves do not saturate; 5' phosphate on strand 1; 5' OH on strand 2; FP: 20 mM HEPES pH 7.5, 50 mM KCl, 0.5 mM TCEP, room temperature, 5 min, DNA 25 nM (Methods) or 50 nM (legends; 10 nM in Suppl. Fig. 14C); recombinant protein; residues 1-335; label: 3' FITC on strand 1"}, "[3]": {"target": "T3, SNM1B D275A (Homo sapiens) (UniProt Q9H816)", "T3 sequence (looked up)": "T1 sequence (looked up) with A257T, D275A", "details": "apparent, curves do not saturate; 5' phosphate on strand 1; 5' OH on strand 2; FP: 20 mM HEPES pH 7.5, 50 mM KCl, 0.5 mM TCEP, room temperature, 5 min, DNA 25 nM (Methods) or 50 nM (legends; 10 nM in Suppl. Fig. 14C); recombinant protein; residues 1-335; protein details: C-terminal His10-FLAG, TEV cleavage stated; label: 3' FITC on strand 1"}, "[4]": {"target": "T4, SNM1B R20A (Homo sapiens) (UniProt Q9H816)", "T4 sequence (looked up)": "T1 sequence (looked up) with R20A, A257T", "details": "similar to WT; 5' phosphate on strand 1; 5' OH on strand 2; FP: 20 mM HEPES pH 7.5, 50 mM KCl, 0.5 mM TCEP, room temperature, 5 min, DNA 25 nM (Methods) or 50 nM (legends; 10 nM in Suppl. Fig. 14C); recombinant protein; residues 1-335; protein details: C-terminal His10-FLAG, TEV cleavage stated; label: 3' FITC on strand 1"}, "[5]": {"target": "T5, SNM1B S34A (Homo sapiens) (UniProt Q9H816)", "T5 sequence (looked up)": "T1 sequence (looked up) with S34A, A257T", "details": "markedly reduced; 5' phosphate on strand 1; 5' OH on strand 2; FP: 20 mM HEPES pH 7.5, 50 mM KCl, 0.5 mM TCEP, room temperature, 5 min, DNA 25 nM (Methods) or 50 nM (legends; 10 nM in Suppl. Fig. 14C); recombinant protein; residues 1-335; protein details: C-terminal His10-FLAG, TEV cleavage stated; label: 3' FITC on strand 1"}}, "note": "Changes are numbered by the printed parent chain. For at least one entry, the source does not settle the construct or the ends of the probe. For some assays here: A weaker result is weaker than the reference pair of the same experiment. Protein sequences can lack the tags named with them.", "data": [{"sequence": "ATAAATATTTTTTATTAATAATAGATCACCTTTCTTTCTCTTCTCCCCTT / ATTATTAATAAAAAATATTTAT [3' overhang DNA (oligo 20 / oligo 4)]", "values": [{"measurement": "Kd", "setting": "[1]", "result": 2120, "unit": "nM"}, {"measurement": "Kd", "setting": "[2]", "result": 1670, "unit": "nM"}, {"measurement": "Kd", "setting": "[3]", "result": 3280, "unit": "nM"}, {"measurement": "binding result", "setting": "[4]", "result": "binds"}, {"measurement": "binding result", "setting": "[5]", "result": "binds more weakly"}]}]}
